No constants are given. Whether binding was seen depends on the method and setting. In cells and extracts the contact can be indirect. Some entries that bind do so weakly or less than the wild type. Where a sequence is shown, tags or fusion partners need not be part of it.
What was measured:
Assay in all cases: co-IP
[1] = biological target: (Flag)3-TET1 1-108 (mouse) (UniProt Q3URK3)
[2] = biological target: (Flag)3-TET1 1-1379 (WT) (mouse) (UniProt Q3URK3)
[3] = biological target: (Flag)3-TET1 1-1494 Δ1+2 (mouse) (UniProt Q3URK3)
[4] = biological target: (Flag)3-TET1 1-1521 (WT) (mouse) (UniProt Q3URK3)
[5] = biological target: (Flag)3-TET1 1-1547 (WT) (mouse) (UniProt Q3URK3)
[6] = biological target: (Flag)3-TET1 1-215 (mouse) (UniProt Q3URK3)
[7] = biological target: (Flag)3-TET1 1-631 (mouse) (UniProt Q3URK3)
[8] = biological target: (Flag)3-TET1 734-1131 (mouse) (UniProt Q3URK3)
[9] = biological target: (Flag)3-TET1 734-1155 (mouse) (UniProt Q3URK3)
[10] = biological target: (Flag)3-TET1 734-2039 (mouse) (UniProt Q3URK3)
[11] = biological target: (Flag)3-TET1(1-1547) Δ109-120 + Δ1132-1202 (Δ1+2) (mouse) (UniProt Q3URK3)
[12] = biological target: (Flag)3-TET1, full length (mouse) (UniProt Q3URK3)
[13] = biological target: Full-length (Flag)3-TET1 triple mutant (Δ109-120 + Δ1132-1202 + 1522-1547 aromatic→A) (mouse) (UniProt Q3URK3)
[14] = biological target: Full-length (Flag)3-TET1 Δ1733-1901 (Δlow) (mouse) (UniProt Q3URK3)

The chains behind the UniProt entries cited, without tags or fusion partners. Where a name states a change or a piece, a line headed by the entry shows the natural chain unless it says otherwise. Residues count along the entry.
UniProt Q3URK3, whole entry: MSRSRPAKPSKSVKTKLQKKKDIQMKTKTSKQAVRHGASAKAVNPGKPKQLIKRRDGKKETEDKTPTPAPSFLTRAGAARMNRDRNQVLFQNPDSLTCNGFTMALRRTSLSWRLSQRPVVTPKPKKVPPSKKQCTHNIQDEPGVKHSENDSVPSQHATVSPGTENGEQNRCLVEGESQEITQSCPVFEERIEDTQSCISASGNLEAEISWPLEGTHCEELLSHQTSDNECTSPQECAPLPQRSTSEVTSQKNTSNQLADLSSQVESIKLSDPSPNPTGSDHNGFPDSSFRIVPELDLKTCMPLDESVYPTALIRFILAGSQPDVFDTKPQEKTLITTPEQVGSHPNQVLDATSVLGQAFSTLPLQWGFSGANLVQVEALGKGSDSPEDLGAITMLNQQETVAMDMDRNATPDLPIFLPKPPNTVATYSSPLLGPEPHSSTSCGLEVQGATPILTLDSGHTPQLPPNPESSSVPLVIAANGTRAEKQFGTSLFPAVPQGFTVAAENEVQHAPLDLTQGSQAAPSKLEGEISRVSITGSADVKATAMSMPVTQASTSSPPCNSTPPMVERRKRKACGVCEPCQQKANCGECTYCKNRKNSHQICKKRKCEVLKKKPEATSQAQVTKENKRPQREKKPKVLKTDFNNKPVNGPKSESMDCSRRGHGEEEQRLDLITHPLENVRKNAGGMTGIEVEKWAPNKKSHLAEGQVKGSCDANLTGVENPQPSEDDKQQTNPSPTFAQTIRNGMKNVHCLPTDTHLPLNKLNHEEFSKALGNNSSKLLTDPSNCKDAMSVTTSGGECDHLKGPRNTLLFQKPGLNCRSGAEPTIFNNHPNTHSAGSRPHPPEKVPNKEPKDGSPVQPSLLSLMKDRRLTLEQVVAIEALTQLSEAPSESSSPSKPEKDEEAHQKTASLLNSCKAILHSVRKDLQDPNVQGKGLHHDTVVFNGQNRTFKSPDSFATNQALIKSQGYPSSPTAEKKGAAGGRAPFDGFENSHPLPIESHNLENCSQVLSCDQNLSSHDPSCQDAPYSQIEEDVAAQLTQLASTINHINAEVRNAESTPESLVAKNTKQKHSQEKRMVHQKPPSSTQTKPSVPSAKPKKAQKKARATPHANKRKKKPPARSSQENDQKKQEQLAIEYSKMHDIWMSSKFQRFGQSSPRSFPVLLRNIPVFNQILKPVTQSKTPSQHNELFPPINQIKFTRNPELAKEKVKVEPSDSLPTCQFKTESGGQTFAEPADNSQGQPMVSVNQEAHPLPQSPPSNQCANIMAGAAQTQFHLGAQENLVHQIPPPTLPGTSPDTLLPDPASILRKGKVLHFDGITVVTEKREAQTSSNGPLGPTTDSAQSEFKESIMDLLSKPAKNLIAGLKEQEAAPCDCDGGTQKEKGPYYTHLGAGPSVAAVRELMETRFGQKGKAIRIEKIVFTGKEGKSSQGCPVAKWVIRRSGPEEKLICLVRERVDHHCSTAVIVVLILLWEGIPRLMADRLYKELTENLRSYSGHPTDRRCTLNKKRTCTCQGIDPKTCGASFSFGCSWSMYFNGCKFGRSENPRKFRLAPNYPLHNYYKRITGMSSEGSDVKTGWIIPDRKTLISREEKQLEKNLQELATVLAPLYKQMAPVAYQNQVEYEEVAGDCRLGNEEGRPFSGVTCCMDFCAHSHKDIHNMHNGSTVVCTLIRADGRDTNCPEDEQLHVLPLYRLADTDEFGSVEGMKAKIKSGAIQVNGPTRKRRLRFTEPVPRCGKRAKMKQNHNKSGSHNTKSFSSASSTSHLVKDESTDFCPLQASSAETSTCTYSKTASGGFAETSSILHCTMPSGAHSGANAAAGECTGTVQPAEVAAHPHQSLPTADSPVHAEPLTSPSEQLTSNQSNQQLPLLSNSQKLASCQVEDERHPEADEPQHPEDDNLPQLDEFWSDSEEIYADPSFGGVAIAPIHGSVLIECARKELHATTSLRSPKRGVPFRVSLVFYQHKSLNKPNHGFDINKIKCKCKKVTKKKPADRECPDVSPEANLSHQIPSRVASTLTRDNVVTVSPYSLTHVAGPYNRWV
UniProt Q3URK3, 1-108: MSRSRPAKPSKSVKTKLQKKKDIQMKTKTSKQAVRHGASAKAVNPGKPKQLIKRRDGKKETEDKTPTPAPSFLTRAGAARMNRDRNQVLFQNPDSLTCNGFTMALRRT
UniProt Q3URK3, 1-215: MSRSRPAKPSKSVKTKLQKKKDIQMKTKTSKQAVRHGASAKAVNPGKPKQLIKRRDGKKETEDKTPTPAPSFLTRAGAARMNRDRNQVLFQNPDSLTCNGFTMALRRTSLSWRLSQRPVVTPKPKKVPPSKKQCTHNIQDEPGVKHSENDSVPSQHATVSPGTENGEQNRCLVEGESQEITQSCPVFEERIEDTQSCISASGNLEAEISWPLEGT
UniProt Q3URK3, 1-631: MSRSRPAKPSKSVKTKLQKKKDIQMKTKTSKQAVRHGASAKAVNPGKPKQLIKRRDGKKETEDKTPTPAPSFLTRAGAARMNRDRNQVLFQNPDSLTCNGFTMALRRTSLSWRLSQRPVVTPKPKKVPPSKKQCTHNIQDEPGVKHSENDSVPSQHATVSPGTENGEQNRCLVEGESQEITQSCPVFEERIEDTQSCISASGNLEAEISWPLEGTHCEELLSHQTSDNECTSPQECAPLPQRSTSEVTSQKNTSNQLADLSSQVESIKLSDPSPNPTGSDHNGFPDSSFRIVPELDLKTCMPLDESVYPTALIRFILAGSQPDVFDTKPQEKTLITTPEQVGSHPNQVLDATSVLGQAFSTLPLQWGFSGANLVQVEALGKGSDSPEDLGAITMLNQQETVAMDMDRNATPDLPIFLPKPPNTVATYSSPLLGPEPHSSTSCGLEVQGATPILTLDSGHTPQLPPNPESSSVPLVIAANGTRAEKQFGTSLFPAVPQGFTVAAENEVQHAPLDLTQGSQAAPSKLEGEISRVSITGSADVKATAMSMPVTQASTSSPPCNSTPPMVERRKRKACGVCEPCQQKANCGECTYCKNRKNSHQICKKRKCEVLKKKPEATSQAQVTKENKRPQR
UniProt Q3URK3, 1-1379: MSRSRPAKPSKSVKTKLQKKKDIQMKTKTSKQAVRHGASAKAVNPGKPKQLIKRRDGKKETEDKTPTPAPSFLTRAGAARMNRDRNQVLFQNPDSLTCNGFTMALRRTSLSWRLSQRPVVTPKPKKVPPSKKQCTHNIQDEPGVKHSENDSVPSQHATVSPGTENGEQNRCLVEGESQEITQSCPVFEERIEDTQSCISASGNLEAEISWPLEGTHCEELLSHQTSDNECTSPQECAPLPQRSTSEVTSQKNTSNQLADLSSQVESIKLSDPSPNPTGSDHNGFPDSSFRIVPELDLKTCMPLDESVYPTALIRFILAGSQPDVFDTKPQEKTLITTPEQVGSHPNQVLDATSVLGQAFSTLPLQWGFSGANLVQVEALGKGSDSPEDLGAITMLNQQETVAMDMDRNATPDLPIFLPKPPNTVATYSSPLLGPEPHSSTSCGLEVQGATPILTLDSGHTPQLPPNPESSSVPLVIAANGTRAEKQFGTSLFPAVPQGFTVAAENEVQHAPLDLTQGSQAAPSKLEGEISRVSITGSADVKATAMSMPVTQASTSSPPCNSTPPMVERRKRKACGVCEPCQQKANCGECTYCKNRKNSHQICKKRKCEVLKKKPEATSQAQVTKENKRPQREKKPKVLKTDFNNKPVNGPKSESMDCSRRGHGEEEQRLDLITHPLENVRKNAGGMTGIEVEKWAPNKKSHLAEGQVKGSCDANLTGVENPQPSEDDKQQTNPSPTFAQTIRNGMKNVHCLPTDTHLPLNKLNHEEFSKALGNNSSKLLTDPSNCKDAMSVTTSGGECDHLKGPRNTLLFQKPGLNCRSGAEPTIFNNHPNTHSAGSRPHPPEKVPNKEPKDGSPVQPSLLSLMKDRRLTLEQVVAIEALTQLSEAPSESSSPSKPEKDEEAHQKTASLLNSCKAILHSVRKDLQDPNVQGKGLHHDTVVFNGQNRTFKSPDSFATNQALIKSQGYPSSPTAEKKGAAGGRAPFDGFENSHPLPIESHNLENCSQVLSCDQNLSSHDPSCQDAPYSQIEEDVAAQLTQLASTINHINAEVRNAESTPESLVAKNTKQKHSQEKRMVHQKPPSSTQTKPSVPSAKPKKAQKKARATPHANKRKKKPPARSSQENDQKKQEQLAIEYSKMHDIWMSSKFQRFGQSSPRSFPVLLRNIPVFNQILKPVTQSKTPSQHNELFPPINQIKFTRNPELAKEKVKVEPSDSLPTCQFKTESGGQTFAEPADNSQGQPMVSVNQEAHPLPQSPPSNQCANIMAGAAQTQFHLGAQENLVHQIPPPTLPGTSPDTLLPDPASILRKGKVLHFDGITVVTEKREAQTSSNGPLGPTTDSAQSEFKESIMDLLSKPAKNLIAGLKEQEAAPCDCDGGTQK
UniProt Q3URK3, 1-1521: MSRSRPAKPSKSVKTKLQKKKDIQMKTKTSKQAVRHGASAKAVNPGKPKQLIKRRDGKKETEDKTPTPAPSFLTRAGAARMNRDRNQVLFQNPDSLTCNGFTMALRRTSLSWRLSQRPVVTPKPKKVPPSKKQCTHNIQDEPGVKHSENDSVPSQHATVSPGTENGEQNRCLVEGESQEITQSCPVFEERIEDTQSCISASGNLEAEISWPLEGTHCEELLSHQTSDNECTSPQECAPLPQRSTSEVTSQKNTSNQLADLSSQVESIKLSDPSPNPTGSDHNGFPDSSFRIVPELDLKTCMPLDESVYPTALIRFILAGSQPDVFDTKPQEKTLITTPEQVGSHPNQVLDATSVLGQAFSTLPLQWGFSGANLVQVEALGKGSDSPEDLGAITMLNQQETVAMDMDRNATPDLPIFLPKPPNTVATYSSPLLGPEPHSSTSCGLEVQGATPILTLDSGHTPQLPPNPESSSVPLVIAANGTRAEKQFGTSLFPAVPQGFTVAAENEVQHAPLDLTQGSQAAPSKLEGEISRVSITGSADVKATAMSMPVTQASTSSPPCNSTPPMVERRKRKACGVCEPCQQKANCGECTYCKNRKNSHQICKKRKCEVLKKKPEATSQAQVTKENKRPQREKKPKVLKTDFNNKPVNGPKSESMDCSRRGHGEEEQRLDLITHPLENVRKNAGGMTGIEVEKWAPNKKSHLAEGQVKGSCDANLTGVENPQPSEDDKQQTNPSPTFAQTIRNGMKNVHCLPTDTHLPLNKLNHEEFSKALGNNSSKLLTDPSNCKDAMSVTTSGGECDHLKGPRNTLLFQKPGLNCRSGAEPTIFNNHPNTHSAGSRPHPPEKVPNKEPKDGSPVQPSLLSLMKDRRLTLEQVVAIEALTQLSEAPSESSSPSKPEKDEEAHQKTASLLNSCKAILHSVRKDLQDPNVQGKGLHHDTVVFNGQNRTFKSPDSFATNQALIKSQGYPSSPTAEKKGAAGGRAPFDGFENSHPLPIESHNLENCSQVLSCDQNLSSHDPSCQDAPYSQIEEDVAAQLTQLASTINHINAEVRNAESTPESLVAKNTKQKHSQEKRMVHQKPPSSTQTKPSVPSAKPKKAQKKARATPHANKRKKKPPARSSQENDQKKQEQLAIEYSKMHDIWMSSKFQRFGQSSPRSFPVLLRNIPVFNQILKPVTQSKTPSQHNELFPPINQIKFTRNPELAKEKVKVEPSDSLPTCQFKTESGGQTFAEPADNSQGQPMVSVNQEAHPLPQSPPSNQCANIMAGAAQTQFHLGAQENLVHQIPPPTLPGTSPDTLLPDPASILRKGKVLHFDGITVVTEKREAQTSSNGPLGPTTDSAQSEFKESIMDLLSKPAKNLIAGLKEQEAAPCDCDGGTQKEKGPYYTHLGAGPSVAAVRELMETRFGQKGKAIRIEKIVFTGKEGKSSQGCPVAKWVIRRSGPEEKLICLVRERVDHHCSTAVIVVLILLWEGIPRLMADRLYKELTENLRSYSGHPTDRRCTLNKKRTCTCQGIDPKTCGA

- binding [1]: no binding
- binding [2]: binds weakly
- binding [3]: no binding
- binding [4]: binds weakly
- binding [5]: binds
- binding [6]: binds
- binding [7]: binds
- binding [8]: no binding
- binding [9]: no binding
- binding [10]: binds
- binding [11]: binds
- binding [12]: binds
- binding [13]: no binding
- binding [14]: binds
B1: (HA)3-NANOG (protein, UniProt Q80Z64 1-305)
chain: MSVGLPGPHSLPSSEEASNSGNASSMPAVFHPENYSCLQGSATEMLCTEAASPRPSSEDLPLQGSPDSSTSPKQKLSSPEADKGPEEEENKVLARKQKMRTVFSQAQLCALKDRFQKQKYLSLQQMQELSSILNLSYKQVKTWFQNQRMKCKRWQKNQWLKTSNGLIQKGSAPVEYPSIHCSYPQGYLVNASGSLSMWGSQTWTNPTWSSQTWTNPTWNNQTWTNPTWSSQAWTAQSWNGQPWNAAPLHNFGEDFLQPYVQLQQNFSASDLEVNLEATRESHAHFSTPQALELFLNYSVTPPGEI

— doi:10.1101/2020.06.29.177584
